{"sequences": {"note": "Sequences of proteins named here, by UniProt entry; tags and fusion partners are left off. Residues count along the entry.", "UniProt P00747, 97-580 partner limits assumed": "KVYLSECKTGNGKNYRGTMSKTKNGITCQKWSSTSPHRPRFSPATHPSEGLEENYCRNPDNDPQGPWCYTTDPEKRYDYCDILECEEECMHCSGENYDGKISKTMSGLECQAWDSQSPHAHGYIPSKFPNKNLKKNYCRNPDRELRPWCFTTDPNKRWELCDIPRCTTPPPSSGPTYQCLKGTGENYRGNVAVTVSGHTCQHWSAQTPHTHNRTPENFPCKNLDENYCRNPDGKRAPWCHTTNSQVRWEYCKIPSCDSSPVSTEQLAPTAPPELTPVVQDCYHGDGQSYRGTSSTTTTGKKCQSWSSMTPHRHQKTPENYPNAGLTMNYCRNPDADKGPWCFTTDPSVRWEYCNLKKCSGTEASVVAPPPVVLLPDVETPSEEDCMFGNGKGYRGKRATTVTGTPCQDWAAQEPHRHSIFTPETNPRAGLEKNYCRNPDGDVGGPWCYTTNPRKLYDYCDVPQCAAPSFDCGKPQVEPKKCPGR", "UniProt P00747, 581-810 limits assumed": "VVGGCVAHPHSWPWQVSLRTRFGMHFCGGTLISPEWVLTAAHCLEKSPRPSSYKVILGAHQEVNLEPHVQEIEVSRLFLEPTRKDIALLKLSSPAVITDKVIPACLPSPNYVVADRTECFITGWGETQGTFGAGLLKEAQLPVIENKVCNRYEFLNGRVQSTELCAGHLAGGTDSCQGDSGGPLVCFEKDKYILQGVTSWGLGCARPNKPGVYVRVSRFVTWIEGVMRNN"}, "source": "patent EP0183271B1", "about": "“Lysin derivative and proteinase inhibitor” (Okamoto, Shosuke, priority 1984, dated 1986)", "target": "Plasmin (Homo sapiens, UniProt P00747)", "experiment": "Antiplasmin activity, overall statements", "assay_type": "biochemical", "conditions": "known compounds of Table II; statement in words summarising Table III", "note": "Some entries share one result that the patent states for a list of compounds."}
{"smiles": "Cc1ccc(S(=O)(=O)N[C@@H](CCCCN)C(=O)O)cc1", "note": "[compound 5]", "values": [{"measurement": "inhibition activity against the action of plasmin", "value": "very low"}]}
